About 6,100 (1.1%) of roughly 580,000 compounds were called active. The inconclusive results got no clear call from the source; some entries with a clear call stand among them for comparison. Calls follow the shape of the dose curve; as a rule, active = well fitted inhibition curve with a large enough effect; inconclusive = small, poorly fitted or top-dose-only effect, or another doubt; inactive = no such curve, though single readings can be large or run the other way. Where the call is inconclusive, the potency comes from a doubtful curve fit.
Biological target: Polyunsaturated fatty acid lipoxygenase ALOX12 (Homo sapiens) (UniProt P18054)
Assay: Primary qHTS assay for inhibitors of human arachidonate 12S-lipoxygenase (ALOX12): Round 2
Conditions: purified 12hLO, xylenol orange hydroperoxide absorbance; activity change, negative = inhibition: at 108 µM (top of the series) unless noted
Summary of the method: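 Purified human 12hLO (150 nM final) in 25 mM Hepes, 0.01% Triton X-100, pH 7.0 was preincubated 15 min at room temperature with compound. Then 40 uM arachidonic acid was added, 30 min. Hydroperoxide was read by Fe-XO absorbance ratio 573/405 nm.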
% is scaled to controls: 0 for no effect and ±100 for the full control effect; potency is read from the fitted curve at half-maximal effect.

By UniProt entry, the sequences of proteins in these tests, tags left out. Where a name states a change or a piece, a line headed by the entry shows the natural chain unless it says otherwise.
UniProt P18054: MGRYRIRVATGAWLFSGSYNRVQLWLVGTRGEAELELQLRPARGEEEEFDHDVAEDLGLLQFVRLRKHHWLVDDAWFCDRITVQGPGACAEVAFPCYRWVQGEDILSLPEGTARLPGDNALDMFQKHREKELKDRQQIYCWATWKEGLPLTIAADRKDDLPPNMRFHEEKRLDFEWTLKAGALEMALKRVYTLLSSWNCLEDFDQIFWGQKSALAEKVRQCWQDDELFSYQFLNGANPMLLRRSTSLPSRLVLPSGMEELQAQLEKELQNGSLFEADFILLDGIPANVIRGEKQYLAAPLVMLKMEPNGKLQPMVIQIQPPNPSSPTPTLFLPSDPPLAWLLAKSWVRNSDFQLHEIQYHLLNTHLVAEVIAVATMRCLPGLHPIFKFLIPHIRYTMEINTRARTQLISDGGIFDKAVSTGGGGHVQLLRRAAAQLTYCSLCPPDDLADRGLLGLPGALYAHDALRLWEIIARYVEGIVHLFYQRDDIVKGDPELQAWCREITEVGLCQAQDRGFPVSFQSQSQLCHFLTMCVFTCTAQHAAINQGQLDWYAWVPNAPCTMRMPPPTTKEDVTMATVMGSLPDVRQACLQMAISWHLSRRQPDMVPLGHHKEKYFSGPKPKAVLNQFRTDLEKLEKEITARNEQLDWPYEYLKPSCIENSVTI

Row | SMILES | Potency | activity change, negative = inhibition
1 | CC(=O)C1=C(C)N(Cc2ccc(F)cc2)C(=S)NC1c1cccc(Br)c1 (stereo unspecified) | active: 39.8 µM | –
2 | CC1=C(C(=O)OCc2ccc3c(c2)OCO3)C(c2ccccc2OCc2ccccc2)NC(=O)N1 (stereo unspecified) | – | inactive: 9.43%
3 | COc1ccc(C(O)c2nc(-c3ccccc3)cs2)cc1 (stereo unspecified) | inconclusive: 100 µM [inhibitor, single point] | –
4 | O=C(CN1CCCc2ccc(F)cc21)Nc1cccc2nsnc12 | inconclusive: 70.8 µM [inhibitor, partial curve, poor fit] | –
5 | COc1ccc(-c2c(C)c3cc(OS(=O)(=O)c4ccc(Cl)cc4)ccc3oc2=O)cc1 | – | inactive: 34%
6 | COc1ccc(-c2ccc3c(c2)C(=O)N2CC[C@H](NC(=O)C4CCCC4)[C@H]2C(=O)N3)c(OC)c1 | inconclusive: 7.94 µM [inhibitor, full curve, poor fit] | –
7 | CC(=O)Oc1c(-c2ccc(NC(=O)c3ccco3)cc2)c(C2CC2)nn1-c1cccc(C)c1 | inconclusive: 10 µM [inhibitor, partial curve, poor fit] | –
8 | CC(C)c1cc(C=O)c(O)c(C=O)c1 | inconclusive: 14.1 µM [inhibitor, partial curve, poor fit] | –
9 | COc1ccc(-c2nnc(C3CCN(C(=O)c4ccccc4F)CC3)o2)cc1 | inconclusive: 15.8 µM [inhibitor, full curve, poor fit] | –
10 | CN1CCN(C(=O)CCn2c(-c3ccccc3)cc3ccccc32)CC1 | – | inactive: 7.6%
11 | CC(=O)c1c(C)cc(C)c(COC(=O)c2ccccn2)c1C | inconclusive: 31.6 µM [inhibitor, partial curve, poor fit] | –
12 | CC1=C(C(=O)NC2CCCc3c2cnn3-c2cccc(C)c2C)OCCO1 (stereo unspecified) | – | inactive: 16.4%
13 | NC(=O)C(CCCCN1CCCCC1)(c1ccccc1)c1ccccc1 | inconclusive: 39.8 µM [inhibitor, partial curve, poor fit] | –
14 | CCN1CCN(C(c2ccccc2)c2nnnn2Cc2ccccc2)CC1 (stereo unspecified) | inconclusive: 2.51 µM [inhibitor, full curve, poor fit] | –
15 | COc1cccc2ccn(CC(=O)NC(C)c3ccccc3)c12 (stereo unspecified) | – | inactive: -1.9%
16 | CC(C)[C@H](NC(=O)c1c(F)cccc1F)C(=O)OCC(=O)NC(=O)NC1CCCC1 | inconclusive: 112 µM [inhibitor, single point] | –
17 | COc1ccc(C2Sc3ccccc3NC3=C2C(=O)c2ccccc23)c(OC)c1OC (stereo unspecified) | inconclusive: 158 µM [inhibitor, single point] | –
18 | CC(C)Nc1nc(NCCOc2ccccc2Cl)c2sccc2n1 | inconclusive: 12.6 µM [inhibitor, partial curve, poor fit] | –
19 | O=C1C2CC=C(Cl)CC2C(=O)N1CCC[n+]1ccccc1 (stereo unspecified) | – | inactive: -32.4%
20 | O=c1[nH]c(C2CCCN(CC3CCCC3)C2)nc2ccc(F)cc12 (stereo unspecified) | – | inactive: 29.8%
21 | CSc1ccc(/C=N/Nc2ccc(Cl)c(C(=O)O)c2)cc1 | inconclusive: 50.1 µM [inhibitor, partial curve, poor fit] | –

Row | SMILES | Potency | activity change, negative = inhibition
22 | CC[N+](C)(CC)CC(=O)OCC1C(C)C=C(C)CC1C (stereo unspecified) | inconclusive: 100 µM [inhibitor, partial curve, poor fit] | –
23 | O=C([C@@H]1C[C@@H](O)[C@H](O)[C@@H]2NC(=S)N(c3ccc4c(c3)OCO4)[C@@H]21)N1CCOCC1 | – | inactive: 29% [at 176 µM]
24 | Cc1ccc(S(=O)(=O)Cc2nc(-c3ccc(C(=O)NCc4ccccc4)cc3)oc2C)cc1 | inconclusive: 100 µM [inhibitor, partial curve, poor fit] | –
25 | O=C(O)Cc1ccc(NS(=O)(=O)c2ccc(C3CCCCC3)cc2)cc1 | inconclusive: 22.4 µM [inhibitor, partial curve, poor fit] | –
26 | CCOC(=O)C1=C(C)OC(N)=C(C#N)C1c1ccccc1 (stereo unspecified) | – | inactive: -18.1%
27 | CN1CCN(C(CNC(=O)C(=O)Nc2ccc3c(c2)OCO3)c2ccc(F)cc2)CC1 (stereo unspecified) | inconclusive: 7.08 µM [inhibitor, partial curve, poor fit] | –
28 | COc1cc(OC)cc(C(=O)N2CCN(C3CCN(Cc4ccccc4)CC3)CC2)c1 | inconclusive: 0.355 µM [inhibitor, full curve, poor fit] | –
29 | Cc1cc(Cl)ccc1OCc1n[nH]c(=S)n1C | inconclusive: 50.1 µM [inhibitor, partial curve, poor fit] | –
30 | O=C(Nc1cccc(Br)c1)C1CC(=O)N(c2n[nH]c3cccc(F)c23)C1 (stereo unspecified) | inconclusive: 11.2 µM [inhibitor, full curve, poor fit] | –
31 | Cc1[nH]c2ccccc2c1C(c1ccccc1I)c1c(C)[nH]c2ccccc12 | inconclusive: 1.41 µM [inhibitor, full curve, poor fit] | –
32 | O=C(c1ccc(F)cc1)N1CCC(N2CC3CCCN3C2=O)CC1 (stereo unspecified) | inconclusive: 56.2 µM [inhibitor, partial curve] | –
33 | O=C(c1ccc2c(c1)CCN2S(=O)(=O)c1ccccc1)N1CCN(c2ccc(F)cc2)CC1 | inactive | –
34 | COc1ccccc1-c1cn2c(n1)CO[C@@H](CNCc1ccc(F)cc1)C2 | inconclusive: 50.1 µM [inhibitor, full curve] | –
35 | COc1ccccc1CN1CCN(Cc2ccc3ccccc3c2)CC1 | inconclusive: 1.26 µM [inhibitor, full curve, poor fit] | –
36 | COC(=O)Cn1c(=NC(=O)c2ccc(S(=O)(=O)N3CCc4ccccc4C3)cc2)sc2cc(OC)ccc21 | – | inactive: -22.2%
37 | COc1ccc(S(=O)(=O)N2CCCC2c2cccs2)cc1 (stereo unspecified) | inconclusive: 89.1 µM [inhibitor, partial curve, poor fit] | –
38 | O=C(OCC1CC1(Cl)Cl)c1ccccc1C(=O)c1ccc(Cl)cc1 (stereo unspecified) | inconclusive: 126 µM [inhibitor, single point] | –
39 | COCC1CN(S(=O)(=O)c2cnc[nH]2)CC12CCNCC2 (stereo unspecified) | inconclusive: 39.8 µM [inhibitor, single point] | –
40 | O=S1OCCSc2sc(=S)sc2SCCO1 | active: 28.2 µM | –
41 | CC#CC(CCCN(C)Cc1ccccc1)(c1ccccc1)c1ccccc1 | inconclusive: 56.2 µM [inhibitor, partial curve, poor fit] | –

— PubChem BioAssay AID1671190 (National Center for Advancing Translational Sciences (NCATS), 2021)
